# Measurements as given in patent US12005120B2, “Galnac conjugated modified oligonucleotides as miR-122 inhibitor having HCV antiviral activity with reduced hyperbilirubinemia side-effect” (Regulus Therapeutics Inc., priority 2018, dated 2024).
# By UniProt entry, the sequences of proteins in these tests, tags left out. Where a name states a change or a piece, a line headed by the entry shows the natural chain unless it says otherwise.
# UniProt Q92887: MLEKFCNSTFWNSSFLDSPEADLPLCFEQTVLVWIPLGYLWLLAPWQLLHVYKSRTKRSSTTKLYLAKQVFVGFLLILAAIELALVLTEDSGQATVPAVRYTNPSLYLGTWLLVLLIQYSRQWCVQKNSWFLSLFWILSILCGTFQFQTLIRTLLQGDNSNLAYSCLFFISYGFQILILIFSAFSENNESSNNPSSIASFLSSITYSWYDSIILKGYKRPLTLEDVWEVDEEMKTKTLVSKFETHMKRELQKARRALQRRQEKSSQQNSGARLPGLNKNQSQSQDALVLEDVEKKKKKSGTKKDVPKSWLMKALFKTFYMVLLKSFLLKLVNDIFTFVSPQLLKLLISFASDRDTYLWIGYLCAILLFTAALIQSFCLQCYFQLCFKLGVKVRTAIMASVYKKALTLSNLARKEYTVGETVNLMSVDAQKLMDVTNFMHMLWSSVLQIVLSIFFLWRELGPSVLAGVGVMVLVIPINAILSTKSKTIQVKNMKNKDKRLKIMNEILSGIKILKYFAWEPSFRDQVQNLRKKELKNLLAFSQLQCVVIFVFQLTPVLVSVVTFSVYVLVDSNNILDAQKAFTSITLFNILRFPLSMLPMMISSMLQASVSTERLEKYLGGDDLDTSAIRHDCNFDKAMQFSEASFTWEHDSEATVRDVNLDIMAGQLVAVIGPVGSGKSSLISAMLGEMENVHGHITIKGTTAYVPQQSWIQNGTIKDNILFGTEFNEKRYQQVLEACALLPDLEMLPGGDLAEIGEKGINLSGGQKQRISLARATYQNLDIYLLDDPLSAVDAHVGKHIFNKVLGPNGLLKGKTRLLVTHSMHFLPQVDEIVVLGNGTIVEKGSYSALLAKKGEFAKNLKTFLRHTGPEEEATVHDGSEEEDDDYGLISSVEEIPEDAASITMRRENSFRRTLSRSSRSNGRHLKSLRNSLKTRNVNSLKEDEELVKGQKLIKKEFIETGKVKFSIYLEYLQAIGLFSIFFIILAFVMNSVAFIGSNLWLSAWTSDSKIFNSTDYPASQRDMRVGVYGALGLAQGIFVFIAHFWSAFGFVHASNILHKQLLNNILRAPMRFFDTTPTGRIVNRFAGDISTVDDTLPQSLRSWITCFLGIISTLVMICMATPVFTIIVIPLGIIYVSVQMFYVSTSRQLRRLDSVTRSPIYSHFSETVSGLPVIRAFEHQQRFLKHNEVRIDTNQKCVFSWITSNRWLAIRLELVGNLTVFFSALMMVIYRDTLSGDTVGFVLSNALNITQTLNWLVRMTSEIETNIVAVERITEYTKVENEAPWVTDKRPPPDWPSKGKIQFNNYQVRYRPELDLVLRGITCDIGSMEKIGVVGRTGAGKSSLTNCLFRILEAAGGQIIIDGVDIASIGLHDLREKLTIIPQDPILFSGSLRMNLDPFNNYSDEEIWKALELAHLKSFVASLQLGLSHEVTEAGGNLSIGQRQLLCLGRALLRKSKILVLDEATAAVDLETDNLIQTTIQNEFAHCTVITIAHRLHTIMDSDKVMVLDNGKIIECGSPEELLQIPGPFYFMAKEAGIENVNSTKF
# Some of these results come from one statement about several compounds together.
# Molecular target: T1, MRP2 transporter (Homo sapiens, UniProt Q92887)
# T1 construct: expressed in transfected cells; host or cells: insect cells (transiently transfected); inside-out membrane vesicles
# Assay: In vitro MRP2 transporter assay (inside-out membrane vesicles, [3H]-estradiol-17β-glucuronide)
# Format: in vitro ADME
# Details: tested at 0 to 100 uM
# Protocol: To test the hypothesis that RG-101 was interfering with MRP2 transporter activity, an in vitro assay was performed per methods known in the art (see, for example, Vermeer et al., Drug Metab. Dispos., 2016, 44(3):453-9). In this assay, an efflux transporter-expressing vesicle is used to evaluate if a drug is a substrate or inhibitor of a transporter. Inside-out membrane vesicles are prepared from insect cells transiently transfected with a single efflux transporter, in this case MRP2. As the vesicles are in an inside-out orientation, the MRP2 transporter pumps radiolabeled substrate, [3H]-estradiol-17β-glucuronide, in an ATP-dependent manner, into the vesicles, and the accumulation of radiolabeled substrate inside the vesicle is measured. If a compound is an MRP2 transport inhibitor, the accumulation of radiolabeled substrate will be reduced relative to control samples. The inhibitory effect of the compound is evaluated by determining the IC50, the concentration resulting in 50% inhibition of transporter-mediated uptake of the radiolabeled substrate.
# The in vitro MRP2 assay was performed for RG-101. Both RG-101, and RG1649, the unconjugated anti-miR of RG-101, were tested at concentrations of 0, 0.1, 0.3, 1, 3, 10, 30, and 100 uM. […] Thus, RG-101 inhibited the MPR2 transporter in this assay. […]
sequence,measurement,value
USCSACSACSTCSCS [RG6650],IC50,> 100 µM
